These are yes or no findings as the source states them, for the method shown. In cells and extracts the contact can be indirect. Some binding calls cover weakened binding; strength is not graded here. For some of these results: Where a sequence is shown, tags or fusion partners need not be part of it.
Assays:
Experiment in all cases: co-immunoprecipitation from transfected HEK293T cells
Myc-Card10 = target: T1, Myc-Card10 (UniProt Q9BWT7)
T1 sequence (looked up): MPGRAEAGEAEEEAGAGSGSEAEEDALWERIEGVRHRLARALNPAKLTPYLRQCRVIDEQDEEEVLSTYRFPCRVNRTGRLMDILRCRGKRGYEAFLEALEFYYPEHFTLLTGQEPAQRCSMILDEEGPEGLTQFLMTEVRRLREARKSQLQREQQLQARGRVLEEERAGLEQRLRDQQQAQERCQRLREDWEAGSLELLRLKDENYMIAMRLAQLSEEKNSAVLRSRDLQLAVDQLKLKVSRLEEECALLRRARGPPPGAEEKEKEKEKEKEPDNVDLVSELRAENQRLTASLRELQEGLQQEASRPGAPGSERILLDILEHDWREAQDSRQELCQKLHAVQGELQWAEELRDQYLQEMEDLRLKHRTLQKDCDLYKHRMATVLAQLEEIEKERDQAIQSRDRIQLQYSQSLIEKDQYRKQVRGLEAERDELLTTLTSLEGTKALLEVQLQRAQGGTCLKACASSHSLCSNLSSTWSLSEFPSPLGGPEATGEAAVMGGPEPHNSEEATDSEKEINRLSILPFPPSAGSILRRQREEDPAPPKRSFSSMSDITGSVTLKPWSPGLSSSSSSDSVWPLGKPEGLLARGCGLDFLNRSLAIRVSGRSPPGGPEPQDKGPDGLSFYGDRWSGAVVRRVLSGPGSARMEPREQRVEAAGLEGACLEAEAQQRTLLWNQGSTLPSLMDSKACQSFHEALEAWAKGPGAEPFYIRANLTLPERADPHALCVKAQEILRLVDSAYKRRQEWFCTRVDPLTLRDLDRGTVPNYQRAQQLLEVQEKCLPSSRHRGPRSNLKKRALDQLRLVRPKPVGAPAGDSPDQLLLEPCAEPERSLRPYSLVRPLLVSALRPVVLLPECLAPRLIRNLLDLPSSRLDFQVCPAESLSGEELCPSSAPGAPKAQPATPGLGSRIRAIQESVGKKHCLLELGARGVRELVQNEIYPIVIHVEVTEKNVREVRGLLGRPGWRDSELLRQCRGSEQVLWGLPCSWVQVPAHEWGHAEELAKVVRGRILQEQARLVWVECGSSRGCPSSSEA

Sequences of proteins named here, by UniProt entry; tags and fusion partners are left off.
UniProt O43353: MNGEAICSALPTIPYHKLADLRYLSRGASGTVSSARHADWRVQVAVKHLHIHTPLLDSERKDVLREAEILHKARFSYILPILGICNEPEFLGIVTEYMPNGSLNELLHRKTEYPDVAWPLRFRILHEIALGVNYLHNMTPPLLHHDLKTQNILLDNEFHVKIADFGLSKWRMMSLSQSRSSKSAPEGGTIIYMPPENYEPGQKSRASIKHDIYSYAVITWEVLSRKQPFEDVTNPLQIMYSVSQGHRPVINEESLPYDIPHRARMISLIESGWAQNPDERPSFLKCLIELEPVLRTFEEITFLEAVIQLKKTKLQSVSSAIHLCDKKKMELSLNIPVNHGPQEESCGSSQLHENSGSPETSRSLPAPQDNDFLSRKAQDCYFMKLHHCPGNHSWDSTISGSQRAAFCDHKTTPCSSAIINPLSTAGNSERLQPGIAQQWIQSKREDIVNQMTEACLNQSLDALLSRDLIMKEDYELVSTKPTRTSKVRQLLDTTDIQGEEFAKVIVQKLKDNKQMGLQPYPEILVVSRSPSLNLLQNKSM
UniProt P29466: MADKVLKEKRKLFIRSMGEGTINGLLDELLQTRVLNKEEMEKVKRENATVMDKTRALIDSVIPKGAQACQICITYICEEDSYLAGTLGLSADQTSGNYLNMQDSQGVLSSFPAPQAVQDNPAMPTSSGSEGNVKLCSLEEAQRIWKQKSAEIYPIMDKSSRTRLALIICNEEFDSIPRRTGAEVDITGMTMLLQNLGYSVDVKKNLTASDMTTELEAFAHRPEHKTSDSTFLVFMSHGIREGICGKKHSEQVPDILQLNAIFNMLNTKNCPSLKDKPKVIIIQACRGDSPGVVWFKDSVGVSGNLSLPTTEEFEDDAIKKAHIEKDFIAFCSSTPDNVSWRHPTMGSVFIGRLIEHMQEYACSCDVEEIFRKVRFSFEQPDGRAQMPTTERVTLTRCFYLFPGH
UniProt Q9ULZ3: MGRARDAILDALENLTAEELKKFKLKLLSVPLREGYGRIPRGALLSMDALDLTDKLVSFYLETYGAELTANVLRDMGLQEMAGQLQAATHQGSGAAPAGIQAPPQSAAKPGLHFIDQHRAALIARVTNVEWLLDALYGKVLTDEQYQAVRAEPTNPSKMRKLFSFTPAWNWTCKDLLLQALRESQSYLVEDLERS

Flag-Cardiak = Flag-Cardiak (UniProt O43353)
Flag-Nod1 = target: T2, Flag-Nod1 (UniProt Q9Y239)
T2 sequence (looked up): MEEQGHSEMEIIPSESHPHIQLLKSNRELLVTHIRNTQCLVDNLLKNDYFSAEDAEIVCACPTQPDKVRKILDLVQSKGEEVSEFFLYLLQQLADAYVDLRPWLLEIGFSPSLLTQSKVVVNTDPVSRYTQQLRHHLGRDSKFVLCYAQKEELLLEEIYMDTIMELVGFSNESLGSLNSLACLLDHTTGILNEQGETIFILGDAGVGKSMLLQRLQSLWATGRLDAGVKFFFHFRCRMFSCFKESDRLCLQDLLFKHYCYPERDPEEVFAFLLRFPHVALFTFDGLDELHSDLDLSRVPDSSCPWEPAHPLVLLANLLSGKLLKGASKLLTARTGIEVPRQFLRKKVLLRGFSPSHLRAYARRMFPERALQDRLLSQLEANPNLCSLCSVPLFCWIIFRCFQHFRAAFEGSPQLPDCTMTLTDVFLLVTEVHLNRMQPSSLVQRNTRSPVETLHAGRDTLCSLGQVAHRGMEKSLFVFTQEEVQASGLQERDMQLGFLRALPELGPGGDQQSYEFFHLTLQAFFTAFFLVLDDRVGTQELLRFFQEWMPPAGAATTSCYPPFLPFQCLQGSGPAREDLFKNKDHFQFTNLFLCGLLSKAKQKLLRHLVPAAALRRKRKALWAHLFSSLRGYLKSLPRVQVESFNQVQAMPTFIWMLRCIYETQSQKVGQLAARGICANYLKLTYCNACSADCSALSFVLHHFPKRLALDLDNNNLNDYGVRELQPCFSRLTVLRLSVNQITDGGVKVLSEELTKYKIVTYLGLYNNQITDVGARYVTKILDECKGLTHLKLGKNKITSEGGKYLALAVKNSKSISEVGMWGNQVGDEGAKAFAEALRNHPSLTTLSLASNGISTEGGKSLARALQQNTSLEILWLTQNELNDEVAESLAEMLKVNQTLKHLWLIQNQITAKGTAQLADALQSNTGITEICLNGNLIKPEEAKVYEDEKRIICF

Myc-Caspase-1 = Myc-Caspase-1 (UniProt P29466)

binding (Myc-Card10): binds
binding (Flag-Cardiak): binds
binding (Flag-Nod1): binds
binding (Myc-Caspase-1): binds
Substance: HA-ASC (from UniProt Q9ULZ3 1-195)
